Measurements reported in PubChem BioAssay AID1259425 (University of Nebraska Medical Center, 2018).

Aim: 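Find knockdowns that reproduce the gene expression pattern seen when KSR1 is lost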 (primary screen)
Cells: HCT116 human colon cancer cells
Reagent: siRNA pool against human genes, 50 nM siRNA
Measured: 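After 50 nM siRNA pool, branched-DNA assay measures six marker transcripts per well, minus blank, normalised to the geometric mean of two housekeeping transcripts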
Scale: BNIP3L mRNA: higher = more BNIP3L transcript after knockdown; NDRG1 mRNA: higher = more NDRG1 transcript after knockdown
This is an unselected part of about 14,000 deposited reagents. Further read-outs or replicates are left out here. Reagent sequences are not shown. Not stated in the record: the time to read-out.

With knock-down of ZSCAN9, the screen gave BNIP3L mRNA, set 1 = 0.115; NDRG1 mRNA, set 1 = 0.286.
Knock-down of TNIP2 came out at: BNIP3L mRNA, set 1 = 0.224; NDRG1 mRNA, set 1 = 0.387.
Silencing of SLIT2 gave: BNIP3L mRNA, set 1 = 0.0243; NDRG1 mRNA, set 1 = 0.165.
DENND4B scored BNIP3L mRNA, set 1 = 0.181; NDRG1 mRNA, set 1 = 0.18.
Depletion of NRP1 resulted in: BNIP3L mRNA, set 1 = 0.145; NDRG1 mRNA, set 1 = 0.0827.
DDX59 gave BNIP3L mRNA, set 1 = 0.261; NDRG1 mRNA, set 1 = 0.19.
After knock-down of EPM2AIP1 the results were BNIP3L mRNA, set 1 = 0.0939; NDRG1 mRNA, set 1 = 0.172.
Depletion of DGCR8 gave: BNIP3L mRNA, set 1 = 0.132; NDRG1 mRNA, set 1 = 0.224.
CSPG5 scored BNIP3L mRNA, set 1 = 0.216; NDRG1 mRNA, set 1 = 0.404.
After knock-down of QTMAN, the record shows BNIP3L mRNA, set 1 = 0.188; NDRG1 mRNA, set 1 = 0.22.
For ARMC7, the values are BNIP3L mRNA, set 1 = 0.0956; NDRG1 mRNA, set 1 = 0.104.
With knock-down of SZT2, the screen gave BNIP3L mRNA, set 1 = 0.143; NDRG1 mRNA, set 1 = 0.375.
With knock-down of COMMD2, the screen gave BNIP3L mRNA, set 1 = 0.106; NDRG1 mRNA, set 1 = 0.0901.
MCM6 gave BNIP3L mRNA, set 1 = 0.0592; NDRG1 mRNA, set 1 = 0.138.
After knock-down of UBA2, the screen gave BNIP3L mRNA, set 1 = 0.313; NDRG1 mRNA, set 1 = 0.32.
After knock-down of ZSCAN20, the screen gave BNIP3L mRNA, set 1 = 0.0985; NDRG1 mRNA, set 1 = 0.592.
ARSB scored BNIP3L mRNA, set 1 = 0.0721; NDRG1 mRNA, set 1 = 0.0702.
Silencing of AK9 resulted in: BNIP3L mRNA, set 1 = 0.0961; NDRG1 mRNA, set 1 = 0.0925.
DYNLL1 scored BNIP3L mRNA, set 1 = 0.0796; NDRG1 mRNA, set 1 = 0.0982.

In a second layout: results already given.
{"gene symbol":"EPM2AIP1","BNIP3L mRNA, set 1":0.0939,"NDRG1 mRNA, set 1":0.172}
{"gene symbol":"DGCR8","BNIP3L mRNA, set 1":0.132,"NDRG1 mRNA, set 1":0.224}
